In PubChem BioAssay AID504834 (National Center for Advancing Translational Sciences (NCATS), 2011):
The campaign covered roughly 320,000 compounds. About 22,000 (6.9%) were called active. The shares of active, inactive and inconclusive entries below differ from those in the screen. Calls follow the shape of the dose curve; as a rule, active = well fitted inhibition curve with a large enough effect; inconclusive = small, poorly fitted or top-dose-only effect, or another doubt; inactive = no such curve, though single readings can be large or run the other way. A potency beside an inconclusive call is a rough fit, not a confirmed value.

Experiment: Primary qHTS for delayed death inhibitors of the malarial parasite plastid, 96 hour incubation
Conditions: P. falciparum luciferase reporter growth; series mostly up to 28.7 µM
Method in brief: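 Erythrocytes infected with luciferase-expressing P. falciparum were dispensed at 2% hematocrit and 0.05% parasitemia (final), then incubated with compounds 96 hours at 37 C in 5% CO2. Luminescence after detection reagent addition reported growth.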
Potency is read from the fitted curve at half-maximal effect.

| SMILES | Potency |
| --- | --- |
| O=C(CN(Cc1ccccc1)S(=O)(=O)c1ccc(Br)cc1)NCc1ccco1 | inconclusive: 8.28 µM [inhibitor, partial curve] |
| COc1ccc(OCC(=O)N2CCN(S(=O)(=O)c3ccc(Cl)s3)CC2)cc1 | inconclusive: 18.5 µM [inhibitor, single point] |
| O=C(CCc1ccncc1)NC1CCCc2c1cnn2-c1ccc(F)cc1F (centres undefined) | inconclusive: 10.4 µM [inhibitor, partial curve, poor fit] |
| Cc1nn(CC(=O)Nc2ccccn2)c(C)c1[N+](=O)[O-] | inconclusive: 4.15 µM [inhibitor, single point] |
| CCN(CC)S(=O)(=O)c1ccc(C2CNC(=O)C2)cc1 (centres undefined) | inconclusive: 18.5 µM [inhibitor, single point] |
| O=C(CSc1ccc2c(c1)OCCO2)Nc1ccc(N2CCOCC2)cc1 | inactive |
| CCOC(=O)c1sc(NC(=O)c2ccccc2)cc1C | inconclusive: 8.28 µM [inhibitor, partial curve, poor fit] |
| C=C1C(=CC=C2CCC[C@@]3(C)[C@@H]2CC[C@H]3[C@H](C)CCCC(C)C)C[C@@H](O)C[C@@H]1O | inconclusive: 2.62 µM [inhibitor, partial curve] |
| O=C(c1ccoc1)N1CCCC(N2CCN(c3ccc(F)cc3)CC2)C1 (centres undefined) | inconclusive: 7.38 µM [inhibitor, partial curve, poor fit] |
| COc1ccc2oc(C)c(C(N)=O)c2c1 | inactive |
| O=C(CCN1C(=O)/C(=C/c2ccccc2Cl)SC1=S)NCCc1ccc(O)cc1 | inactive |
| CCN(CC)S(=O)(=O)c1ccc(OC)c(NC(=O)CSc2ccccc2)c1 | inconclusive: 4.65 µM [inhibitor, partial curve] |
| Cc1nn(-c2cccc(Cl)c2)c2nc(-c3ccco3)cc(C(=O)O)c12 | inconclusive: 18.5 µM [inhibitor, single point] |
| O=C(CCCN1CCc2[nH]c3ccc(F)cc3c2C1)c1ccc(F)cc1 | inconclusive: 18.5 µM [inhibitor, single point] |
| CCCCCCCCCCCCn1ccc(=N)cc1 | inconclusive: 0.828 µM [inhibitor, full curve, poor fit] |
| CCOC(=O)c1csc(NC(=O)CSc2nnnn2-c2ccc(OC)cc2)n1 | inconclusive: 7.38 µM [inhibitor, partial curve, poor fit] |
| Cc1ccc(CNC(=O)Cc2csc(Nc3nc(=S)[nH]c4ccccc34)n2)cc1 | inactive |
| O=C(NC1CCCCCC1)c1c(O)nc2sccn2c1=O | active: 4.65 µM |
| O=C(NC1CCN(C(=O)NCc2ccccc2)CC1)c1ccco1 | inconclusive: 0.828 µM [inhibitor, full curve] |
| Brc1ccc(OCCCCCN2CCOCC2)cc1 | inconclusive: 1.85 µM [inhibitor, full curve, poor fit] |
| Cn1cccc1Cc1nnc(SCC(=O)NCCc2ccccc2)n1-c1ccc(F)cc1 | inconclusive: 10.4 µM [inhibitor, single point] |
| Cc1c([N+](=O)[O-])c(C(=O)NC2CCCCC2)nn1C | inactive |
| Cc1ccc(C(=O)Nc2cccc(C(=O)N/N=C/c3ccc(F)cc3)c2)cc1 | inconclusive: 7.38 µM [inhibitor, partial curve, poor fit] |

| SMILES | Potency |
| --- | --- |
| CC(=O)c1ccc(OCc2cc(C(=O)N3CCC[C@H]3CO)no2)cc1 | inconclusive: 18.5 µM [inhibitor, partial curve, poor fit] |
| CC(C)(C)C(=O)Nc1ccc(C(=O)CSc2nnc(C3CC3)n2C2CC2)cc1 | inactive |
| CCN(CC)S(=O)(=O)c1cc(NC(=O)CSc2nnc(-c3cccs3)o2)ccc1C | inconclusive: 6.57 µM [inhibitor, partial curve] |
| CC1=C(C(=O)OCc2ccccc2)C(c2ccc3ccccc3c2)NC(=O)N1CCCC(=O)O (centres undefined) | inactive |
| Cc1ccc([N+](=O)[O-])cc1-c1ccc(/C=N/NC(=O)CN2CCOCC2)o1 | inconclusive: 13.1 µM [inhibitor, single point] |
| Cc1cc(O)ccc1Nc1nc2ccccc2nc1Nc1ccc(O)cc1C | inconclusive: 14.7 µM [inhibitor, partial curve, poor fit] |
| Nc1cccc(C2=Nc3cccc4cccc(c34)N2)c1 | inconclusive: 18.5 µM [inhibitor, single point] |
| Oc1ccc(/C=C\c2cc(O)cc(O)c2)cc1 | inconclusive: 8.09 µM [inhibitor, single point] |
| O=C(O)C1C2C=CC(C2)C1C(=O)NCCC1=CCCCC1 (centres undefined) | inconclusive: 0.0657 µM [inhibitor, full curve, poor fit] |
| O=S1(=O)CC(N2CCCCC2)C(N2CCCCC2)C1 (centres undefined) | inconclusive: 10.4 µM [inhibitor, single point] |
| CCCOc1ccc(C2=CSC3=NCCN23)cc1 | inconclusive: 8.28 µM [inhibitor, partial curve, poor fit] |
| Cc1sc(N/N=C/c2ccco2)nc1-c1ccccc1 | inconclusive: 18.5 µM [inhibitor, single point] |
| CCOC(=O)c1cc(C(C)=O)n2ccccc12 | inconclusive: 11.7 µM [inhibitor, partial curve, poor fit] |
| O=C(CCCc1ccccc1)N1CCN(C2CCCCC2)CC1 | inconclusive: 18.5 µM [inhibitor, single point] |
| O=C(NCc1ccco1)c1cnn2c(C(F)(F)F)cc(-c3ccco3)nc12 | active: 1.65 µM |
| CSc1ccc(S(=O)(=O)N2CCC(C(=O)Nc3ccc(NC(C)=O)cc3)CC2)cc1 | inconclusive: 4.15 µM [inhibitor, partial curve] |
| Fc1ccc(CN2CCN(c3ncccn3)CC2)c(F)c1 | inconclusive: 11.7 µM [inhibitor, single point] |
| O=c1[nH]c(=O)n(C2CCCCC2)c(O)c1/C=C/C=Nc1ccccc1 | inconclusive: 0.0026 µM [inhibitor, full curve, poor fit] |
| CC1CCN(CC(O)COc2ccc(C(=O)c3ccccc3)cc2)CC1 (centres undefined) | inconclusive: 18.5 µM [inhibitor, single point] |
| CN1C(=O)C(=Cc2c(OCc3cnc(Cl)s3)ccc3ccccc23)C(=O)N(C)C1=O | inactive |
| N#Cc1ccccc1COC(=O)c1cc(=O)c2ccccc2o1 | inactive |
| C=C(C)COc1ccc(-c2ncncc2-c2ccc(Br)cc2)c(O)c1 | active: 2.33 µM |
| S=C(NCCN1CCOCC1)Nc1ccc(Cl)cc1 | inactive |

Molecules listed so far that have a COOH group:

| SMILES | Potency |
| --- | --- |
| Cc1nn(-c2cccc(Cl)c2)c2nc(-c3ccco3)cc(C(=O)O)c12 | inconclusive: 18.5 µM [inhibitor, single point] |
| CC1=C(C(=O)OCc2ccccc2)C(c2ccc3ccccc3c2)NC(=O)N1CCCC(=O)O (centres undefined) | inactive |
| O=C(O)C1C2C=CC(C2)C1C(=O)NCCC1=CCCCC1 (centres undefined) | inconclusive: 0.0657 µM [inhibitor, full curve, poor fit] |

Pulled one by one from above (2):

| SMILES | Potency |
| --- | --- |
| CN1C(=O)C(=Cc2c(OCc3cnc(Cl)s3)ccc3ccccc23)C(=O)N(C)C1=O | inactive |
| Cc1ccc([N+](=O)[O-])cc1-c1ccc(/C=N/NC(=O)CN2CCOCC2)o1 | inconclusive: 13.1 µM [inhibitor, single point] |

Remaining list, next part:

| SMILES | Potency |
| --- | --- |
| CCOc1ccccc1-c1nc(-c2cc3ccccc3nc2OC)no1 | inconclusive: 10.4 µM [inhibitor, single point] |
| CC(=O)CCc1ccc(OCCCOc2cccc3cccnc23)cc1 | inconclusive: 18.5 µM [inhibitor, single point] |
| COc1ccc(CNC(=O)CN2C(=O)NC3(CCCc4sccc43)C2=O)cc1OC (centres undefined) | active: 4.15 µM |
| CCOC(=O)c1c(NC(=O)CCl)sc(C(=O)N(CC)CC)c1C | active: 9.28 µM |
| COc1ccc(-c2nn(-c3ccccc3)cc2C(=O)NCCCn2ccnc2)cc1 | inconclusive: 18.5 µM [inhibitor, single point] |
| COCc1cc(C)n(CC(=O)Nc2ccc(N3CCOCC3)cc2)c(=O)c1C#N | inconclusive: 1.17 µM [inhibitor, partial curve, poor fit] |
| COC(=O)c1ccc(NC(=O)CCN2C(=O)C3CC=CCC3C2=O)cc1 (centres undefined) | inconclusive: 16.5 µM [inhibitor, single point] |
| Nc1ccccc1Sc1c[nH]c2ccccc12 | inconclusive: 18.5 µM [inhibitor, single point] |
| COc1cc(CN2CCN(C3CCC3)CC2CCO)cc(OC)c1 (centres undefined) | inactive |
| O=C1CC(N2CCN(C(c3ccccc3)c3ccccc3)CC2)C(=O)N1Cc1ccc(N2CCCC2=O)cc1 (centres undefined) | active: 14.7 µM |
| CCOC(=O)c1cc2c(=O)n3ccccc3nc2n(CCOC)c1=NC(=O)C(C)(C)C | inactive |
| O=C(CCCCCn1c(=S)[nH]c2ccc(N3CCOCC3)cc2c1=O)NCc1ccc(Cl)cc1 | inactive |
| CCCCCCCN(C(=O)CCl)c1ccccc1C | inconclusive: 13.1 µM [inhibitor, single point] |
| COc1ccc(CNC(=O)CCCn2ncn3c(cc4occc43)c2=O)cc1 | inactive |
| C=CCn1cc(C(=O)OC)c(=O)c2cc(S(=O)(=O)N3CCCCCC3)ccc21 | inactive |
| O=C1CCCC1C(=O)Nc1ccc2ccccc2c1 (centres undefined) | inactive |
| COC(=O)C1=C(c2ccc(OCc3ccccc3)cc2)C[C@@H]2CC[C@H]1N2C(=O)NC1CCN(Cc2ccccc2)CC1 | inconclusive: 4.15 µM [inhibitor, full curve] |
| Cc1cccc(Cn2c(C)nc3c(N)c(C)c(C)cc32)c1 | inconclusive: 10.4 µM [inhibitor, single point] |
| O=C1[C@H]2[C@@H](c3ccc(F)cc3)N3C(=O)N(c4ccccc4)C(=O)[C@@]3(Cc3ccc(Cl)cc3)[C@H]2C(=O)N1C1CCCCC1 | inconclusive: 0.0262 µM [inhibitor, full curve, poor fit] |
| COc1cccc(CN(C)C(=O)c2[nH]c(C)c(C(C)=O)c2C)c1OC | active: 7.38 µM |
| CCOC(=O)Cn1nnc(-c2ccccc2)n1 | inconclusive: 14.7 µM [inhibitor, partial curve, poor fit] |
| CC(C)C(=O)NNC(=O)CSc1nc(C2CCCCC2)nc2ccccc12 | active: 1.47 µM |
| Cn1c(CC(=O)Nc2ccc(Cl)c(Cl)c2)n[nH]c1=S | active: 0.0738 µM |
